The results in this text go back to publication doi:10.1101/2020.12.13.422588.

No constants are given. Whether binding was seen depends on the method and setting. Some entries that bind do so weakly or less than the wild type.

Common to all, as to assay: two-hybrid
The target in test [1] is T1, full-length SpbK (Bacillus subtilis) (UniProt P96648).
T1 sequence: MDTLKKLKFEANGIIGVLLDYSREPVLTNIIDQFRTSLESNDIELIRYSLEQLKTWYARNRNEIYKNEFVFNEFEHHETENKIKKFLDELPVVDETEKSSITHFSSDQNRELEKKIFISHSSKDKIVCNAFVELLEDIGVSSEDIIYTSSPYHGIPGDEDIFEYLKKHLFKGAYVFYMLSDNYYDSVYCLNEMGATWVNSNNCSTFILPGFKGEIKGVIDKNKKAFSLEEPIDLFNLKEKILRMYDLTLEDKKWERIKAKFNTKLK

For test [2], the target named is T2, SpbK amino acids 97-266 (TIR domain) (Bacillus subtilis) (UniProt P96648).
T2 sequence: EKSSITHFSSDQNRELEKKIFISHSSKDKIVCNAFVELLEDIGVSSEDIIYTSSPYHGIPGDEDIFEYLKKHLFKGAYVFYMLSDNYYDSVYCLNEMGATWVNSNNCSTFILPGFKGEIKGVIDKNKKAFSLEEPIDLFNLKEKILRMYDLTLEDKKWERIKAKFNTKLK

Test [3] has as its target SpbK amino acids 1-104 (N-terminus) (Bacillus subtilis) (UniProt P96648).

B1: YonE (protein, UniProt O31953 1-506)
chain: MVTLNKVDIESEEYKQMLNDYSTYTSTFASGFISNMFSNGIVTEIEAEQLKNYFSNPDEFQEEIEDLAQYFYISTAEIHQLFELIEALPTLNYKIDSFNKVKSSDKHISLLNKSLHKVKHKRLTRDLLKQVATAGTLVGIWLGDAKSPYPFIFDEIKYVFPSFRRNGDWVCVVDMELFTKYKDDQRNELLKSLSPYIKQSDYENFMKDREKYRFKELPQERTFPLRTGTLKRNQGLGTSWVTPGLYDVLHKKKLKDVERSIANKIINAVAVLTIGTDKGNGEYTNMKLPKAVKQKIHGGVKTALEKNQKDGVTVVSIPDFADINFPDVKADGLDGAKFDHINSDIQSAYGLSGSLLNGDGGNYATSSLNLDTFYKRIGVLMEDIEQEVYQKLFNLVLPAAQKDNYYMNYDKDKPLTLKEKMDILIKLNDKGWSIKHVVDNLAGVSWESYLEQTLYETEELKLQEKIRPYQTSYTFTGNEVGRPNEGNKNNDNTVKSATSNGNDNPI
For B1, the binding result in test [1] is listed as “no binding”.

B2: full-length SpbK (protein, UniProt P96648 1-266)
chain: MDTLKKLKFEANGIIGVLLDYSREPVLTNIIDQFRTSLESNDIELIRYSLEQLKTWYARNRNEIYKNEFVFNEFEHHETENKIKKFLDELPVVDETEKSSITHFSSDQNRELEKKIFISHSSKDKIVCNAFVELLEDIGVSSEDIIYTSSPYHGIPGDEDIFEYLKKHLFKGAYVFYMLSDNYYDSVYCLNEMGATWVNSNNCSTFILPGFKGEIKGVIDKNKKAFSLEEPIDLFNLKEKILRMYDLTLEDKKWERIKAKFNTKLK
For B2, the binding entry in test [1] was “binds”.

B3: SpbK amino acids 97-266 (TIR domain) (domain or fragment, UniProt P96648 97-266)
chain: EKSSITHFSSDQNRELEKKIFISHSSKDKIVCNAFVELLEDIGVSSEDIIYTSSPYHGIPGDEDIFEYLKKHLFKGAYVFYMLSDNYYDSVYCLNEMGATWVNSNNCSTFILPGFKGEIKGVIDKNKKAFSLEEPIDLFNLKEKILRMYDLTLEDKKWERIKAKFNTKLK
For B3, the binding result in test [1] and in test [2] was “binds” throughout.

B4: SpbK amino acids 1-104 (N-terminus) (domain or fragment, UniProt P96648 1-104)
chain: MDTLKKLKFEANGIIGVLLDYSREPVLTNIIDQFRTSLESNDIELIRYSLEQLKTWYARNRNEIYKNEFVFNEFEHHETENKIKKFLDELPVVDETEKSSITHF
As to B4, the binding result in test [1], in test [3] and in test [2] was “no binding” each time.
